# Test results published in PMC3464273.
# No constants are given. Whether binding was seen depends on the method and setting. For some of these results: Binding can be weak; no strength is given.
# What was measured:
# [1] = target: TAP-tagged full length KREPA4 (T. brucei); experiment: TAP-tag affinity purification, fi
# [2] = target: TAP-tagged full length KREPA4 (T. brucei); experiment: TAP-tag affinity purification, bo
# [3] = target: TAP-tagged KREPA4 FL minus OB-fold (C-terminal) (T. brucei); experiment: TAP-tag affinity purification, first step (TEV eluate), with western blot
# [4] = target: TAP-tagged KREPA4 OB-fold (C-terminal), fused to the mitochondrial import signal (T. brucei); experiment: as above
binder,measurement,setting,value
"KREPA2, endogenous (protein, UniProt A0A3L6L0V2 1-587) MYRRFFRSAAVKHLGTTSAQCLMRATKYPCGAMCRNASSCHPQTLGYQQRFQSTTDKKFHCSVCKKPFRLEMAAKLHLQQAHGGDGSVEAGPGPGVEASSVNVVSTPVPSPISPVERTFVDEEERRPRRMRPTPKPLHQPDRDIPAAAMEEMLGVWDKIGLNRLEGNFVHSTMVMKVFAAPPDVSEIPLYEHVAPEGENPFDSLDHMTTGTVDATYVGHDAFAEVDLVDPFVAAPDQTLNPFRAGKVRNPFTRISPTQREVVKPLQPPQPKEEPLKAPVTPFGQLPMFGQTREPSASFAAAAVSVQAAANPNEVSSPFAAAVSSSPFVGQVASPFAPAQDVAGSPFEASPCAASSPFVTAGGQETSPFAAPSTPASFGQGSLFPPMGTGAPGFTAITETEQRQQELEHGCPTCGKKFSTFEGAAMHSKSKHGIVLESKKVKDRLNRKGVPDLPAYVPSPVDLSSTSPFGTRSAIGASWAETELIPHAQCVSNITIVGRVLDVSQASENVSHVTVFVEGERSGEEETLTLCCFGEVSQKIRGTLKRNATIFASGTLRLHPVYEASNNKYYVSPVVHVSMPTGTLAVIT",binding,[1],binds
same,binding,[2],binds
same,binding,[3],no binding
same,binding,[4],no binding
